Test results from PubChem BioAssay AID1671190 (National Center for Advancing Translational Sciences (NCATS), 2021).
The whole screen tested about 580,000 compounds, of which about 6,100 (1.1%) were called active. The shares of active, inactive and inconclusive entries below differ from those in the screen. The call rests on the fitted dose curve; in most records, active means well fitted inhibition curve with a large enough effect; inconclusive means small, poorly fitted or top-dose-only effect, or another doubt; inactive means no such curve, though single readings can be large or run the other way. Potencies of inconclusive entries are doubtful fits and often do not repeat.
On the % scale 0 is the no-effect control and ±100 the full control effect; potency means the concentration at half of the fitted maximal effect.

The chains behind the UniProt entries cited, without tags or fusion partners. Where a name states a change or a piece, a line headed by the entry shows the natural chain unless it says otherwise.
UniProt P18054: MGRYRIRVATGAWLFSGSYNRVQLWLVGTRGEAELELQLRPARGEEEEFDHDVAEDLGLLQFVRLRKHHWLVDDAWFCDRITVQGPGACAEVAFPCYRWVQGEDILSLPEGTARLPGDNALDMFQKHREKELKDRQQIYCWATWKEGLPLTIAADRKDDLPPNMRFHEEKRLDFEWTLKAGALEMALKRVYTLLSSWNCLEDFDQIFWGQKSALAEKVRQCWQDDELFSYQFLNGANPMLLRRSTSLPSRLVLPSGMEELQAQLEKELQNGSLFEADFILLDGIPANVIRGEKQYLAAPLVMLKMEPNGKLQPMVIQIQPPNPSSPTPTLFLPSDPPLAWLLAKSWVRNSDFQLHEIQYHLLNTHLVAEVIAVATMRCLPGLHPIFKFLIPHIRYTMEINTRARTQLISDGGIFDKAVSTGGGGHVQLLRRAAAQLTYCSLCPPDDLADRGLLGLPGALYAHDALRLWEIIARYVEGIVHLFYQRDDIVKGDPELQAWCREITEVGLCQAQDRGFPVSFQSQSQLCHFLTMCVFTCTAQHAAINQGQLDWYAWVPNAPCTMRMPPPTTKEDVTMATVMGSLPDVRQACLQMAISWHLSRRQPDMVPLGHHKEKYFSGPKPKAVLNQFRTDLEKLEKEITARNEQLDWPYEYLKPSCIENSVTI

Each compound was assayed against Polyunsaturated fatty acid lipoxygenase ALOX12 (Homo sapiens) (UniProt P18054) (assay: Primary qHTS assay for inhibitors of human arachidonate 12S-lipoxygenase (ALOX12): Round 2). Conditions: purified 12hLO, xylenol orange hydroperoxide absorbance; activity change, negative = inhibition: at 108 µM (top of the series) unless noted.
Procedure, shortened: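 Hydroperoxide product was detected by ferrous iron/xylenol orange as the 573 to 405 nm absorbance ratio. Arachidonic acid at 40 uM (final) was turned over for 30 min at room temperature by 150 nM human 12hLO, pH 7.0 Hepes buffer, after 15 min compound preincubation.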
For Cc1cc(C)cc(NC(=S)NNC=O)c1, the Potency was inconclusive: 44.7 µM [inhibitor, partial curve]. Clc1ccc(CN2CCSCC2)cc1Cl was tested, and the Potency was inconclusive: 0.631 µM [inhibitor, full curve, poor fit]. In the case of Cc1cc(C)nc(NS(=O)(=O)c2ccc(N3C(=O)C4CCCCC4C3=O)cc2)n1 (stereo not given), the Potency is reported as inconclusive: 100 µM [inhibitor, single point]. O=C(CSc1nnc(-c2ccncc2)n1Cc1ccco1)Nc1nc(-c2ccccc2)cs1 was tested, and the Potency was inconclusive: 35.5 µM [inhibitor, partial curve, poor fit]. For CC1CCN(C(=O)c2nn(C)c3c2CCc2sccc2-3)CC1, the Potency was inconclusive: 89.1 µM [inhibitor, partial curve, poor fit]. COC(=O)Nc1ccc(-c2nc(N3CCOCC3)c3cnn(C4CCN(C(=O)OC)CC4)c3n2)cc1 was tested, and the Potency was inconclusive: 48.5 µM [inhibitor, single point]. With Cc1cc(C(=O)N2CCN(S(=O)(=O)c3ccc(Cl)cc3)CC2)on1 the Potency was inconclusive: 50.1 µM [inhibitor, single point]. Cc1ccc(S(=O)(=O)NC(=NC2CCCCC2)c2ccccc2)cc1 was tested, and the Potency was inconclusive: 112 µM [inhibitor, single point]. O=C(CN1C(=O)NC2(CCOCC2)C1=O)NCc1ccccc1 was tested, and the Potency was inconclusive: 25.1 µM [inhibitor, partial curve, poor fit]. Fc1ccccc1-n1[nH]nnc1=S was tested, and the Potency was “inactive”. With Cc1ccc(NC(=O)c2ccc(S(=O)(=O)NCc3ccco3)cc2)cc1 the Potency was “inactive”. For FC(F)Oc1ccc(NC(=S)NC2CCCCCCC2)cc1, the Potency was inconclusive: 79.4 µM [inhibitor, partial curve, poor fit]. With Cc1ccc2sc(NNC(=O)C3COc4ccccc4O3)nc2c1C (stereo not given) the Potency was inconclusive: 31.6 µM [inhibitor, partial curve, poor fit]. COc1ccc(-n2nnnc2SCC(=O)N2CCCc3ccccc32)cc1OC was tested, and the Potency was inconclusive: 39.8 µM [inhibitor, single point]. In the case of CC(/C=N/NC(=O)Cc1cccs1)=C\c1ccco1, the Potency is reported as inconclusive: 44.7 µM [inhibitor, partial curve, poor fit]. O=C(Nc1nn(-c2cccc(F)c2)c2cccc(N3CCOC3=O)c12)C1CCC1 was tested, and the Potency was inconclusive: 89.1 µM [inhibitor, partial curve, poor fit]. For COc1ccc2c(c1)N(C(=O)Nc1ccc(Cl)cc1)C(C)(C)C=C2C, the Potency was inconclusive: 50.1 µM [inhibitor, partial curve, poor fit]. In the case of c1ccc(OCCSc2nnnn2C2CCCCC2)cc1, the Potency is reported as “inactive”. With Cn1c(=O)c2c(ncn2CCC(=O)NCC(F)(F)F)n(C)c1=O the Potency was “inactive”. In the case of CCCn1c(N)c(C(=O)COC(=O)CNC(=O)c2ccccc2OCC)c(=O)[nH]c1=O, the activity change, negative = inhibition is reported as inconclusive: -35.2% [inhibitor]. CC(C)Cn1c(N)c(C(=O)COC(=O)c2ccccc2C(=O)c2ccccc2)c(=O)n(C)c1=O was tested, and the Potency was “inactive”. For N#CCCCN1CCCC1Cc1ccccc1 (stereo not given), the Potency was inconclusive: 17.8 µM [inhibitor, full curve, poor fit]. With O=C(/C=C/Nc1ccc(OC(F)(F)F)cc1)c1ccc(Br)cc1 the Potency was inconclusive: 50.1 µM [inhibitor, partial curve, poor fit]. In the case of CCCCN1C(=S)NC[C@@H]1Cc1ccccc1, the Potency is reported as inconclusive: 7.94 µM [inhibitor, partial curve, poor fit]. Cc1ccc(-n2c(Cn3nc(C(F)F)cc3C(F)F)n[nH]c2=S)cc1 was tested, and the Potency was inconclusive: 79.4 µM [inhibitor, partial curve, poor fit]. Cc1cc(N2CCN(C(c3ccccc3)c3ccc(Cl)cc3)CC2)n2ncnc2n1 (stereo not given) was tested, and the Potency was inconclusive: 44.7 µM [inhibitor, partial curve, poor fit]. COc1ccc(OC)c(C(=O)/C=C/c2cccs2)c1 was tested, and the Potency was inconclusive: 50.1 µM [inhibitor, partial curve, poor fit]. In the case of CC(C)NC(=O)NC(=O)C(C)N(C)Cc1ccccc1 (stereo not given), the Potency is reported as inconclusive: 126 µM [inhibitor, partial curve, poor fit]. Cn1cc(-c2ccccc2Oc2ccccc2)c2nc(CN3CCOCC3)cn2c1=O was tested, and the Potency was inconclusive: 100 µM [inhibitor, single point]. With C[C@@H]1CCCCO[C@H](CN(C)Cc2ccc(Cl)c(Cl)c2)[C@@H](C)CN([C@H](C)CO)C(=O)c2cc(N(C)C)ccc2O1 the Potency was “inactive”. For CCCNC(=O)N[C@@H]1C[C@H](Cn2cc(COC)nn2)[C@@H](O)[C@H]1O, the Potency was inconclusive: 28.2 µM [inhibitor, full curve]. With Cc1ccc(NC(C)C(=O)Nc2sccc2C#N)c(C)c1 (stereo not given) the Potency was inconclusive: 126 µM [inhibitor, single point]. For COc1ccc(-c2c[n+]3c(n2-c2ccccc2)SCC3)cc1OC, the Potency was “inactive”. Oc1ccc(CCNCCCCCCNCCc2ccccc2)cc1O was tested, and the Potency was inconclusive: 0.228 µM [inhibitor, full curve]. With COC(=O)C[C@@H]1C=C[C@@H](NC(=O)Nc2cccc(F)c2)[C@@H](CO)O1 the Potency was inconclusive: 89.1 µM [inhibitor, partial curve, poor fit]. In the case of Cc1cc2nn(-c3ccccc3)nc2cc1NC(=O)c1ccc(Br)o1, the Potency is reported as inconclusive: 50.1 µM [inhibitor, partial curve, poor fit]. With COC(=O)C1=C(C(C)=O)C(c2ccc(C(=O)OC)cc2)n2nnnc2N1 (stereo not given) the Potency was inconclusive: 28.2 µM [inhibitor, partial curve, poor fit]. In the case of CNC(=O)c1ccccc1NCC(=O)Nc1sc2c(c1C#N)CCCCC2, the Potency is reported as inconclusive: 3.98 µM [inhibitor, partial curve, poor fit]. With CC(C)NC(=O)c1cccc2c1CCCN2CC(=O)NC(C)c1ccccc1 (stereo not given) the Potency was inconclusive: 0.282 µM [inhibitor, full curve, poor fit]. With CC1(C)Cc2nc3[nH]c(=S)[nH]c(=O)c3cc2CO1 the Potency was inconclusive: 8.91 µM [inhibitor, full curve].
